Values of other authors in patent publication EP3498298A1, “THE USE OF SGC STIMULATORS AND SGC ACTIVATORS ALONE OR IN COMBINATION WITH PDE5 INHIBITORS FOR THE TREATMENT OF BONE DISORDERS INCLUDING OSTEOGENESIS IMPERFECTA (OI)” (Bayer AG, priority 2017, dated 2019).
For at least one compound, name, drawing or mass did not settle the structure.

System: rat model of an open femoral osteotomy
Conditions: cited from earlier work

For `CN1CC(=O)N2[C@H](c3ccc4c(c3)OCO4)c3[nH]c4ccccc4c3C[C@@H]2C1=O` [tadalafil, (6R,12aR) -2,3,6,7,12,12a - Hexahydro - 2 - methyl - 6 - (3,4-methylene-dioxyphenyl) pyrazino(1',2':1,6) pyrido(3,4-b)indole-1,4-dione], the maximum strength is listed as “no significant changes”, the stiffness is listed as “no significant changes” and the “callus volume, mineral content and bone density” value (comparison between all groups) is listed as “no significant difference”.
